Here are results for 42 sequences from publication PMC7819943, “Rice protein-binding microarrays: a tool to detect cis-acting elements near promoter regions in rice”.

The other results are listed elsewhere or left out.

The target in this test is T1, OsSMF1 (Oryza sativa, UniProt Q6ZLB0 1-436).
T1 sequence: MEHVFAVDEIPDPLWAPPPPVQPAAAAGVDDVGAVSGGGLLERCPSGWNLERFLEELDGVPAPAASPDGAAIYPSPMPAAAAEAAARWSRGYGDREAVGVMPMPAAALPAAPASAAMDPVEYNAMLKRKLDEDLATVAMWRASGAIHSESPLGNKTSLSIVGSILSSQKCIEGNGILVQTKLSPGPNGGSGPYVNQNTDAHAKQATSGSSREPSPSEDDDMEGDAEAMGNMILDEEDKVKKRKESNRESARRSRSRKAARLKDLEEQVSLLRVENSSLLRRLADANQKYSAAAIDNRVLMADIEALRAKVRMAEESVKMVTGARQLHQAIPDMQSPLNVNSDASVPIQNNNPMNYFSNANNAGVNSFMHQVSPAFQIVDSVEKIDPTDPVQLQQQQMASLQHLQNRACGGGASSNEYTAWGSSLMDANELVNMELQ
As to the kind of experiment: protein-binding microarray (RPBM); PBS, 2% BSA, 51.3 ng/ul salmon testes DNA, 50 uM zinc acetate, 200 nM TF, 25 C, 1 h; high values mean tight binding. The following applies: protein: recombinant; tags: N-terminal polyhistidine and DsRed monomer fusion (pET32a); chain copies: 2; label: CyDye5-dUTP incorporated in the synthesized complementary strand; 3' TTTTT single-stranded linker to array surface; dsDNA, one strand shown. The method, boiled down:
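Using Ni–NTA, transcription factors fused N-terminally to polyhistidine and DsRed were purified after expression in E. coli BL21-CodonPlus. These were incubated at 200 nM with a blocked, double-stranded custom Agilent array for 1 h at 25 °C in a buffer containing 50 µM zinc acetate, and the array was washed. The binding signal is per-feature fluorescence intensity (arbitrary units) on an Axon 4000B scanner.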
With “CATACAGGGATGAGGTGTGACTGAGGTGGCTGTCATGTAGCGGAGTCACCTAGTGCAG”, the binding signal is 5610 fluorescence intensity (a.u.).

For the sequence “AAACGTGCAGTACAACGTGCACACGTATGTCGGTATGTGTCGGAGTCACCTAGTGCAG”, the binding signal was 6500 fluorescence intensity (a.u.).

As for “AGTGCTACTACTACGTGGAGAGCAGAGCACTAGCAGAGTGCGGAGTCACCTAGTGCAG”, the binding signal is 3320 fluorescence intensity (a.u.).

Turning to “AAGCAGCATATTCTATATATTGCCACGTTCACCACATAGACGGAGTCACCTAGTGCAG”, the binding signal was 5970 fluorescence intensity (a.u.).

With “TATAACCATTACGTACTCCACGACAGCTCCTCTGCGACGCCGGAGTCACCTAGTGCAG”, the binding signal was 3860 fluorescence intensity (a.u.).

For the sequence “ATCGCGGATCAGGCGTAGAACGTGGCATGTTTCCAGTATCCGGAGTCACCTAGTGCAG”, the binding signal is 6200 fluorescence intensity (a.u.).

For “GTGATGCTGATGACACACTGGCACACGCGCACACACACAGCGGAGTCACCTAGTGCAG”, the binding signal is 6650 fluorescence intensity (a.u.).

For “ACTCTGTACTGCGCCGTCACTCGTAGACTACTCCATCCCGCGGAGTCACCTAGTGCAG”, the binding signal is 4340 fluorescence intensity (a.u.).

As for “TTGCACGCGGATCTCCACACTCCGCACCGCCGGAACCCTACGGAGTCACCTAGTGCAG”, the binding signal was 3260 fluorescence intensity (a.u.).

“CTCCTCTTCGTTATCCCGTCGCCACCTCGCCCCATCACCCCGGAGTCACCTAGTGCAG”: the binding signal is 5340 fluorescence intensity (a.u.).

For the sequence “GCGCGAAGGCGAAGCGGCCGTGGACGCATGCGAGCCTTGACGGAGTCACCTAGTGCAG”, the binding signal is 3540 fluorescence intensity (a.u.).

As to “CGCTTCCTGTTGTGATTATGTAATCTTGTATTCTTGTTGACGGAGTCACCTAGTGCAG”, the binding signal was 3540 fluorescence intensity (a.u.).

With “CGCGGCCACGCGCGGTCGGCGAGGCCACCGTGTACGCCGGCGGAGTCACCTAGTGCAG”, the binding signal was 3280 fluorescence intensity (a.u.).

Turning to “GTGCAAAGCTCCCAGTCTCATTGTTGCGGCAACGTGGCTTCGGAGTCACCTAGTGCAG”, the binding signal was 3700 fluorescence intensity (a.u.).

As to “GGTTTTATCTGACGTGGCTGCTGAGTCAGTGTGGGACCCACGGAGTCACCTAGTGCAG”, the binding signal was 30900 fluorescence intensity (a.u.).

For the sequence “GCGCCGCCGGCGCCGCGGCGCGGCCGATGACCACGCCGGACGGAGTCACCTAGTGCAG”, the binding signal is 3490 fluorescence intensity (a.u.).

Consider “TACGCGCGTCGTTGACACGCCAGCTGATGCATTACATGTTCGGAGTCACCTAGTGCAG”, for which the binding signal was 5620 fluorescence intensity (a.u.).

Regarding “ACATAGTAATTTTGCATGGCCATCATCTTGCCCTCCTATACGGAGTCACCTAGTGCAG”, the binding signal is 3160 fluorescence intensity (a.u.).

Turning to “CGCCGACGACGACGAGGTCTACCCTCCGCTGACCACGATGCGGAGTCACCTAGTGCAG”, the binding signal is 3660 fluorescence intensity (a.u.).

For the sequence “TGGTTGGTGGTGTCTGTGCGTGTTCCGGCGAGTGGTCGGTCGGAGTCACCTAGTGCAG”, the binding signal was 4210 fluorescence intensity (a.u.).

In the case of “CACTCTGCTTTGCCTCGAATATCTCGGCAGGTAGACGTCACGGAGTCACCTAGTGCAG”, the binding signal is 4190 fluorescence intensity (a.u.).

In the case of “TCACGGCCGCCTCCGCCATCTGCACAACCTCGCCGCCGCCCGGAGTCACCTAGTGCAG”, the binding signal was 65500 fluorescence intensity (a.u.).

For the sequence “TGCACGGCCAGCACCGACGTCGGCAGCTTGCCCATGTCGACGGAGTCACCTAGTGCAG”, the binding signal was 3820 fluorescence intensity (a.u.).

On to “GCTATAATATATTGCAGCAGCAGCAGCAGTGGTGGTGGTGCGGAGTCACCTAGTGCAG”, for which the binding signal was 3360 fluorescence intensity (a.u.).

For the sequence “TTTCAACGGAAATCTACCGCGTCCAGGTGGCGGACGCCCACGGAGTCACCTAGTGCAG”, the binding signal is 3540 fluorescence intensity (a.u.).

“TATGTGGGGTTGAATTTGTTTTGAAATTTCCGCATAGATGCGGAGTCACCTAGTGCAG”: the binding signal was 3510 fluorescence intensity (a.u.).

With “GGCACAGGGCGGCGACGAGGATGTTGAACGTGTGCGCGTTCGGAGTCACCTAGTGCAG”, the binding signal was 3870 fluorescence intensity (a.u.).

With “CCAATTGTGTGGCGCGGACGTGGCGCGCCGCGCGTCCACCCGGAGTCACCTAGTGCAG”, the binding signal is 7350 fluorescence intensity (a.u.).

With “TGGCCGGCCCCGCCGGCAGCCGAACCTCTCGTGACCCGTGCGGAGTCACCTAGTGCAG”, the binding signal was 3220 fluorescence intensity (a.u.).

Take “GGGTGGATTTGAGTGACACGGGCCCACGTGTAGCCTCACACGGAGTCACCTAGTGCAG”: the binding signal was 11700 fluorescence intensity (a.u.).

Take “CCAGTGTGTGAATCAGTGTGACGTGACACATGACGTAAGCCGGAGTCACCTAGTGCAG”: the binding signal was 7060 fluorescence intensity (a.u.).

As for “TATTTTGAACGTGACTAAATGTCCATTTTCTCGCACCCCACGGAGTCACCTAGTGCAG”, the binding signal is 4220 fluorescence intensity (a.u.).

In the case of “GTGGATAGCTGAAGGTTTTGTCCATGTGGAACATGTAGGGCGGAGTCACCTAGTGCAG”, the binding signal was 3270 fluorescence intensity (a.u.).

With “AAGCATCACATCAACGTCACGTGGAACGAAGACTAGGTCACGGAGTCACCTAGTGCAG”, the binding signal was 6370 fluorescence intensity (a.u.).

Take “CAGTAGAGGCAAAAGCTGGTCGTCGTGGCGGGTTCATCGGCGGAGTCACCTAGTGCAG”: the binding signal was 4350 fluorescence intensity (a.u.).

Turning to “ACAGTTACCGGCCAGTTCGCTATTGCCGGAGTCACCATCCCGGAGTCACCTAGTGCAG”, the binding signal was 3280 fluorescence intensity (a.u.).

For “GCTTCACCTCTGACACCATTGACACATTAGCCTGCCATTGCGGAGTCACCTAGTGCAG”, the binding signal was 5500 fluorescence intensity (a.u.).

For the sequence “AAAAGAAACCTGCCTATACGTCACAAAATTCAAACGATGCCGGAGTCACCTAGTGCAG”, the binding signal was 4150 fluorescence intensity (a.u.).

For the sequence “ACTATGTTTATCATGTTTGTCGTGGCATGTGTGCCCTTGTCGGAGTCACCTAGTGCAG”, the binding signal is 4520 fluorescence intensity (a.u.).

On to “GAGACCCAAAGCCACGCAACTTTCTTTGTGTTCTTTGATTCGGAGTCACCTAGTGCAG”, for which the binding signal was 3990 fluorescence intensity (a.u.).

Regarding “CCCGTGTTCTCCACCTCACTCCACAATAACTTGGCGGCTGCGGAGTCACCTAGTGCAG”, the binding signal is 5380 fluorescence intensity (a.u.).

As for “CAAGAGGAGGGTCTACGCCTTCTTTACGCGAACGTGGACCCGGAGTCACCTAGTGCAG”, the binding signal is 4010 fluorescence intensity (a.u.).
